Laboratory results from PMC5564716.
These are yes or no findings as the source states them, for the method shown. In cells and extracts the contact can be indirect. Some binding calls cover weakened binding; strength is not graded here.

Sequences of proteins named here, by UniProt entry; tags and fusion partners are left off.
UniProt Q12888: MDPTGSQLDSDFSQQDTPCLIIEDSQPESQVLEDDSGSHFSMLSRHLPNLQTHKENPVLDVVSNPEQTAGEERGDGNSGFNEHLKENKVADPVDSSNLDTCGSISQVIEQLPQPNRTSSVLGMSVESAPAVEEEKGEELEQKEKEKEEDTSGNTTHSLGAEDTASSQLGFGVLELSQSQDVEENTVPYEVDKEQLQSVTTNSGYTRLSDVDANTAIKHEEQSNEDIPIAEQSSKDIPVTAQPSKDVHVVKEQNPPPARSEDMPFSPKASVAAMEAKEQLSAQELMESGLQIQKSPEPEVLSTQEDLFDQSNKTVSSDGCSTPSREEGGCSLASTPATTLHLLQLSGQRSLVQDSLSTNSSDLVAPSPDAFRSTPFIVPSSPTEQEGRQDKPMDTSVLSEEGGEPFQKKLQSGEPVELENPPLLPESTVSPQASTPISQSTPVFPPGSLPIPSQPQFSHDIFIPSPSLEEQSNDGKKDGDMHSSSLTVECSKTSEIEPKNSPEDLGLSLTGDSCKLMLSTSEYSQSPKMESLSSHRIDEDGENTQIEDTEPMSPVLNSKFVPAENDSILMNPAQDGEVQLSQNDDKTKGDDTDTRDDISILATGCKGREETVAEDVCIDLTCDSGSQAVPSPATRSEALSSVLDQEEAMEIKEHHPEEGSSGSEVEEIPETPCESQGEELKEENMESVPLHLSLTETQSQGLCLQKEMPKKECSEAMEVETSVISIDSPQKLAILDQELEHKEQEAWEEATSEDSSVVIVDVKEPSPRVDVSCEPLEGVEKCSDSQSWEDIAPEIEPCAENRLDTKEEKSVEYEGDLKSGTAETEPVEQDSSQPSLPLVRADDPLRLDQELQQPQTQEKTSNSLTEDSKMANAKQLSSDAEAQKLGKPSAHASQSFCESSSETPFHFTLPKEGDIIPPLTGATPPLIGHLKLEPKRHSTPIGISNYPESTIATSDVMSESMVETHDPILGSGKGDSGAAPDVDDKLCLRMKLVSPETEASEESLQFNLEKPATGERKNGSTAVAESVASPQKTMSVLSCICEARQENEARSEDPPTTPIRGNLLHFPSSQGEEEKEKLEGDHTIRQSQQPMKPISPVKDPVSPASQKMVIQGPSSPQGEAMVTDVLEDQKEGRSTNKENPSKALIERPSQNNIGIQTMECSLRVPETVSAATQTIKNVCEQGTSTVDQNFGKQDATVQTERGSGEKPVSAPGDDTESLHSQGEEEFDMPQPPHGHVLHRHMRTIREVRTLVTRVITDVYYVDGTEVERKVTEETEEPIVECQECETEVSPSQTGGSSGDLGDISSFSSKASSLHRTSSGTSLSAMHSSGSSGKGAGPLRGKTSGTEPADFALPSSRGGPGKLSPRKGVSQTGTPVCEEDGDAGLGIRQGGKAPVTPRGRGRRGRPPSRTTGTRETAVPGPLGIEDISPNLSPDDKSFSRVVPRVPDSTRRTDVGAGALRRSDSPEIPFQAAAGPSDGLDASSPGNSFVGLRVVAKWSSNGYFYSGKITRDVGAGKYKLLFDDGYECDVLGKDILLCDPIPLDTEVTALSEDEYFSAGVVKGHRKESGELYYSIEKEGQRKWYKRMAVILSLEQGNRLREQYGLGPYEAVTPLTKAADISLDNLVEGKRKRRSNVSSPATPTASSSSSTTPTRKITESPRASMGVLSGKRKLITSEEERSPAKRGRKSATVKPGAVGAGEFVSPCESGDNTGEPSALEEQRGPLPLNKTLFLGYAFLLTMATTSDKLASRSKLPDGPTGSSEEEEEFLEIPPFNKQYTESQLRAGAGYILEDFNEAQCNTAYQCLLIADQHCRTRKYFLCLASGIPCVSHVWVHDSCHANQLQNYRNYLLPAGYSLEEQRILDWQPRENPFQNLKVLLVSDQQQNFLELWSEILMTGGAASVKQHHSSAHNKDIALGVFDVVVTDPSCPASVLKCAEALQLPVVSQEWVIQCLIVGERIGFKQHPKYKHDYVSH

Biological target: tumor suppressor p53-binding protein 1 (53BP1), endogenous (human (endogenous in U2OS)) (UniProt Q12888)
Experiment: co-IP; endogenous immunoprecipitation of 53BP1 or MCAK from extracts of unsynchronized or NOC-synchronized mitotic cells, immunoblotting

binding: binds
B1: mitotic centromere-associated kinesin (MCAK), endogenous (protein, UniProt Q99661 1-725)
chain: MAMDSSLQARLFPGLAIKIQRSNGLIHSANVRTVNLEKSCVSVEWAEGGATKGKEIDFDDVAAINPELLQLLPLHPKDNLPLQENVTIQKQKRRSVNSKIPAPKESLRSRSTRMSTVSELRITAQENDMEVELPAAANSRKQFSVPPAPTRPSCPAVAEIPLRMVSEEMEEQVHSIRGSSSANPVNSVRRKSCLVKEVEKMKNKREEKKAQNSEMRMKRAQEYDSSFPNWEFARMIKEFRATLECHPLTMTDPIEEHRICVCVRKRPLNKQELAKKEIDVISIPSKCLLLVHEPKLKVDLTKYLENQAFCFDFAFDETASNEVVYRFTARPLVQTIFEGGKATCFAYGQTGSGKTHTMGGDLSGKAQNASKGIYAMASRDVFLLKNQPCYRKLGLEVYVTFFEIYNGKLFDLLNKKAKLRVLEDGKQQVQVVGLQEHLVNSADDVIKMIDMGSACRTSGQTFANSNSSRSHACFQIILRAKGRMHGKFSLVDLAGNERGADTSSADRQTRMEGAEINKSLLALKECIRALGQNKAHTPFRESKLTQVLRDSFIGENSRTCMIATISPGISSCEYTLNTLRYADRVKELSPHSGPSGEQLIQMETEEMEACSNGALIPGNLSKEEEELSSQMSSFNEAMTQIRELEEKAMEELKEIIQQGPDWLELSEMTEQPDYDLETFVNKAESALAQQAKHFSALRDVIKALRLAMQLEEQASRQISSKKRPQ
